PubChem BioAssay AID1224830 | NIAID, 2016
Shown is an unselected part of about 18,000 reagents. Over the whole deposit, about 2,900 (16%) were called active. 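Calls are made per well; low scores hint the gene aids the LPS response, high scores that it dampens it.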 Repeated entries: four replicate wells of each siRNA pool. Reagent sequences are not shown.

Aim: 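Regulators of TLR4 signalling towards TNF-alpha in macrophage-like cells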 (primary screen)
System: human THP-1 monocytic leukaemia cells, TNF dual-luciferase reporter clone, PMA-differentiated to macrophage-like cells
Knock-down reagent: siRNA pool against human genes, 50 nM
Time to read-out: LPS for 4 h, given about 3 days after siRNA transfection
Treatment: bacterial LPS (TLR4 ligand), 10 ng/ml
Detection: 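TNF firefly reporter luminescence divided by renilla, normalised to the plate median, then turned into a robust z-score for each replicate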
Reading the numbers: TNF reporter robust z-score: higher = stronger TNF reporter response to LPS
Call rule: 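Each well counts as active if its z-score is over 2.8 or under -1.5; controls are left without a call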

| gene symbol | TNF reporter robust z-score | Call |
| --- | --- | --- |
| ABHD8 (abhydrolase domain containing 8) | 0.8 | inactive |
| ABHD8 (abhydrolase domain containing 8) | 0.45 | inactive |
| ABHD8 (abhydrolase domain containing 8) | -0.06 | inactive |
| FOXH1 (forkhead box H1) | -0.95 | inactive |
| FOXH1 (forkhead box H1) | -0.79 | inactive |
| FOXH1 (forkhead box H1) | -0.86 | inactive |
| FOXH1 (forkhead box H1) | -0.59 | inactive |
| EXTL3 (exostosin like glycosyltransferase 3) | 0.69 | inactive |
| EXTL3 (exostosin like glycosyltransferase 3) | 1.81 | inactive |
| EXTL3 (exostosin like glycosyltransferase 3) | 0.98 | inactive |
| EXTL3 (exostosin like glycosyltransferase 3) | 0.29 | inactive |
| FYCO1 (FYVE and coiled-coil domain autophagy adaptor 1) | -1.02 | inactive |
| FYCO1 (FYVE and coiled-coil domain autophagy adaptor 1) | 1.59 | inactive |
| FYCO1 (FYVE and coiled-coil domain autophagy adaptor 1) | -0.06 | inactive |
| FYCO1 (FYVE and coiled-coil domain autophagy adaptor 1) | 0.08 | inactive |
| OGA (O-GlcNAcase) | 0.61 | inactive |
| OGA (O-GlcNAcase) | -0.66 | inactive |
| OGA (O-GlcNAcase) | 1.28 | inactive |
| OGA (O-GlcNAcase) | 1.08 | inactive |
| SULT2A1 (sulfotransferase family 2A member 1) | -0.04 | inactive |
| SULT2A1 (sulfotransferase family 2A member 1) | 0.2 | inactive |
| SULT2A1 (sulfotransferase family 2A member 1) | 0.1 | inactive |
| SULT2A1 (sulfotransferase family 2A member 1) | 0.01 | inactive |
| ABO | -0.56 | inactive |
| ABO | 0.81 | inactive |
| ABO | 1.29 | inactive |
| ABO | -0.75 | inactive |
| CPA6 (carboxypeptidase A6) | 1.11 | inactive |
| CPA6 (carboxypeptidase A6) | -1.39 | inactive |
| CPA6 (carboxypeptidase A6) | -0.5 | inactive |
| CBX1 (chromobox 1) | 0.03 | inactive |
| CBX1 (chromobox 1) | 0.98 | inactive |
| CBX1 (chromobox 1) | 0.25 | inactive |
| CBX1 (chromobox 1) | 0.59 | inactive |
| CD79B (CD79b molecule) | 3.09 | active |
| CD79B (CD79b molecule) | 1.52 | inactive |
| CD79B (CD79b molecule) | 1.7 | inactive |
| CD79B (CD79b molecule) | 1.9 | inactive |
| NDRG3 (NDRG family member 3) | 0.36 | inactive |
| NDRG3 (NDRG family member 3) | 1.23 | inactive |
| NDRG3 (NDRG family member 3) | 1.46 | inactive |
| NDRG3 (NDRG family member 3) | 1.84 | inactive |
| BTBD3 (BTB domain containing 3) | -0.18 | inactive |
| BTBD3 (BTB domain containing 3) | -0.21 | inactive |
| BTBD3 (BTB domain containing 3) | 0.04 | inactive |
| BTBD3 (BTB domain containing 3) | -0.22 | inactive |

Ordered by “TNF reporter robust z-score” (descending): some entries from above
| gene symbol | TNF reporter robust z-score | Call |
| --- | --- | --- |
| CD79B (CD79b molecule) | 3.09 | active |
| CD79B (CD79b molecule) | 1.52 | inactive |
| CBX1 (chromobox 1) | 0.59 | inactive |
| CBX1 (chromobox 1) | 0.25 | inactive |

The results go on:
| gene symbol | TNF reporter robust z-score | Call |
| --- | --- | --- |
| PDZD11 (PDZ domain containing 11) | 0.83 | inactive |
| PDZD11 (PDZ domain containing 11) | 0.46 | inactive |
| PDZD11 (PDZ domain containing 11) | 0.27 | inactive |
| PDZD11 (PDZ domain containing 11) | 0.59 | inactive |
| TEPSIN (TEPSIN adaptor related protein complex 4 accessory protein) | 0.11 | inactive |
| TEPSIN (TEPSIN adaptor related protein complex 4 accessory protein) | -0.14 | inactive |
| TEPSIN (TEPSIN adaptor related protein complex 4 accessory protein) | 0.3 | inactive |
| TEPSIN (TEPSIN adaptor related protein complex 4 accessory protein) | -0.39 | inactive |
| LRRN2 (leucine rich repeat neuronal 2) | -0.33 | inactive |
| LRRN2 (leucine rich repeat neuronal 2) | -1.25 | inactive |
| LRRN2 (leucine rich repeat neuronal 2) | -1.67 | active |
| LRRN2 (leucine rich repeat neuronal 2) | -1.1 | inactive |
| LIAT1 (ligand of ATE1) | -1.7 | active |
| LIAT1 (ligand of ATE1) | -1.65 | active |
| TCEAL9 (transcription elongation factor A like 9) | -0.34 | inactive |
| TCEAL9 (transcription elongation factor A like 9) | -1.2 | inactive |
| TCEAL9 (transcription elongation factor A like 9) | -0.58 | inactive |
| TCEAL9 (transcription elongation factor A like 9) | -0.12 | inactive |
| PRKD2 (protein kinase D2) | 0.32 | inactive |
| PRKD2 (protein kinase D2) | 0.5 | inactive |
| PRKD2 (protein kinase D2) | 2.34 | inactive |
| PRKD2 (protein kinase D2) | 2.13 | inactive |
| SET (SET nuclear proto-oncogene) | -0.24 | inactive |
| SET (SET nuclear proto-oncogene) | -0.5 | inactive |
| SET (SET nuclear proto-oncogene) | -0.08 | inactive |
| SET (SET nuclear proto-oncogene) | 0.49 | inactive |
| EGLN3 (egl-9 family hypoxia inducible factor 3) | 0.47 | inactive |
| EGLN3 (egl-9 family hypoxia inducible factor 3) | 1.38 | inactive |
| EGLN3 (egl-9 family hypoxia inducible factor 3) | 0.5 | inactive |
| EGLN3 (egl-9 family hypoxia inducible factor 3) | 2.23 | inactive |
